PubChem BioAssay AID624291 (National Center for Advancing Translational Sciences (NCATS), 2012)
Out of some 350,000 compounds screened, about 220 (0.063%) were called active. The inconclusive results got no clear call from the source; some entries with a clear call stand among them for comparison. Calls come from the whole dose curve; as a rule, active = well fitted activation curve with a large enough effect; inconclusive = small, poorly fitted or top-dose-only effect; inactive = no such curve, though single readings can be large or run the other way. Potencies of inconclusive entries are doubtful fits and often do not repeat.

Test: qHTS for Activators of Integrin-Mediated Alleviation for Muscular Dystrophy; note: nearly all actives have a fitted effect of over 60% in size;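 for activation: 100% = response of the positive control SU9516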
Conditions: alpha7betagal myoblasts, beta-gal FDG fluorescence, 48 h; activation: at 38.3 µM (top of the series)
Method in brief: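 alpha7betagal+/- myoblasts (passage 13, 250/well) treated 48 h at 37C with compounds at 1:260 dilution of DMSO stock. Lysed, then beta-galactosidase activity read as FDG fluorescence (ex 480/em 540) after 30 min, with pre-read for autofluorescence.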
Potency is the fitted concentration of half-maximal effect.

SMILES | Potency | activation
O=C1N(c2ccc(Cl)c(Cl)c2)CN(Cc2ccccc2)CN1n1cnnc1 | inconclusive: 1.58 µM [activator, full curve, poor fit] | –
O=Cc1ccnc(-c2ccc(OC(=O)c3ccco3)cc2)n1 | inconclusive: 10 µM [activator, single point] | –
CC1CCN(C(=O)N[C@@H](Cc2ccccc2)C(=O)O)CC1 | inconclusive: 22.4 µM [activator, single point] | –
Cc1ccnc(NC(=O)CCC2COc3ccccc3O2)c1 (stereo unspecified) | – | inactive: 1.95%
CCOc1ccccc1NC(=O)CSc1cn[nH]n1 | – | inactive: -26.1%
COc1ccc(N(CC(=O)NCCc2cccc(C)c2)S(=O)(=O)c2c(C)noc2C)cc1 | inconclusive: 2 µM [activator, full curve, poor fit] | –
O=C(O)C1CCN(C(=O)CSc2nc3ccccc3c(=O)n2Cc2ccccc2)CC1 | inconclusive: 5.01 µM [activator, single point] | –
Cc1ccc(NC(=O)Cn2c(CCC(=O)O)ccc2-c2ccc(Cl)cc2)cc1 | inconclusive: 2 µM [activator, partial curve, poor fit] | –
COc1ccc(OC)c(C2C(C(C)=O)=C(O)C(=O)N2c2ccc(F)cc2)c1 (stereo unspecified) | inconclusive: 28.2 µM [activator, single point] | –
O=C1OC=NC1=Cc1ccccc1 | – | inactive: 6.31%
NCCOc1ccccc1OCCN | inconclusive: 10 µM [activator, partial curve, poor fit] | –
CCN=c1scc(C)n1/N=C/c1ccc(O)c(O)c1O | – | inactive: -43.9%
CN(C)c1ccc(C(=O)Nc2cccc(S(=O)(=O)NC3=NCCCCC3)c2)cc1 | – | inactive: -3.06%
CN(c1ccccc1)S(=O)(=O)c1cc(C(=O)OCC(=O)c2c(N)n(C)c(=O)n(C)c2=O)ccc1Cl | – | inconclusive: -31% [activator]
COc1ccc(NC(=O)CNC(=O)N2CC(=O)Nc3ccccc32)cc1OC | inconclusive: 3.55 µM [activator, single point] | –
COc1ccccc1NC(=O)C(C)N1C(=O)c2ccccc2C1=O (stereo unspecified) | – | inactive: 2.94%
O=C(Nc1cccc(S(=O)(=O)NC2=NCCC2)c1)c1ccc(=O)[nH]c1 | inconclusive: 1 µM [activator, full curve, poor fit] | –
CCCCn1nc(NS(=O)(=O)c2cccc3nonc23)c2cc3cccc(C)c3nc21 | – | inactive: 7.34%
CCOc1ccc2c(c1)/C(=C(\C(Cl)=C(Cl)Cl)[N+](=O)[O-])N2 | inconclusive: 5.01 µM [activator, single point] | –
CCOC(=O)c1cc(C(=O)OCC)c(=O)[nH]c1SCc1ccccc1 | inconclusive: 2.82 µM [activator, full curve] | –
COCC(=O)Nc1cccc(Br)c1 | inconclusive: 10 µM [activator, partial curve, poor fit] | –
c1ccc(-n2cnc3ccccc32)nc1 | inconclusive: 28.2 µM [activator, single point] | –
N#CCN1CCC2(O)CCCCC2C1c1ccc2c(c1)OCO2 (stereo unspecified) | – | inactive: 20.9%
Nc1nc2c(C(=O)N3CCOCC3)nnn2c2ccccc12 | – | inactive: 0.326%

Grouped by structure, the entries above with an NH in an aromatic ring
SMILES | Potency | activation
CCOc1ccccc1NC(=O)CSc1cn[nH]n1 | – | inactive: -26.1%
O=C(Nc1cccc(S(=O)(=O)NC2=NCCC2)c1)c1ccc(=O)[nH]c1 | inconclusive: 1 µM [activator, full curve, poor fit] | –
CCOC(=O)c1cc(C(=O)OCC)c(=O)[nH]c1SCc1ccccc1 | inconclusive: 2.82 µM [activator, full curve] | –

Following part

SMILES | Potency | activation
Cn1c(CCNC(=O)c2ccco2)nc2cc(NC(=O)c3ccccc3Cl)ccc21 | inconclusive: 10 µM [activator, single point] | –
Cc1c(C)c2ccc(OCC(=O)Nc3ccccn3)c(C)c2oc1=O | inconclusive: 6.31 µM [activator, single point] | –
O=C(c1cccs1)N1CCN(c2cc(Cl)ccc2Cl)CC1 | inconclusive: 3.16 µM [activator, full curve, poor fit] | –
COc1cc2oc3cc(C#Cc4ccc(N)cc4)ccc3c(=O)c2cc1OC | – | inactive: -24.9%
CC(=O)Nc1c(-c2ccc(Cl)cc2)c(=O)c2ccccc2n1C | inconclusive: 7.94 µM [activator, partial curve] | –
Cc1cc(S(=O)(=O)NCCCn2ccnc2)c(C)cc1Cl | inconclusive: 10 µM [activator, partial curve, poor fit] | –
COc1cc(/C=C2/SC(=Nc3ccc(O)cc3)NC2=O)cc(OC)c1O | – | inactive: -0.348%
COc1ccc(C(C#N)CC(=O)c2ccc(OC)c(OCc3ccccc3)c2)cc1OC (stereo unspecified) | – | inactive: 0.772%
O=[N+]([O-])c1ccccc1/C=C/C=N/Nc1ccc(S(=O)(=O)Nc2ccc(Cl)cc2)cc1[N+](=O)[O-] | inconclusive: 5.01 µM [activator, single point] | –
O=C(CNC(=O)c1ccccn1)N=Nc1c(O)[nH]c2ccccc12 | inconclusive: 5.01 µM [activator, single point] | –
CC(C)(C)OC(=O)N1CCCC(C(=O)Nc2cccc(C(=O)NC3CC3)c2)C1 (stereo unspecified) | – | inactive: -3.82%
CC(C)(Oc1ccc(Cl)cc1)C(=O)OCn1nnc2ccccc2c1=O | – | inactive: 2.12%
CSc1nc(-c2ccccc2)cn1-c1ccc(NC(C)=O)cc1 | inconclusive: 2.82 µM [activator, single point] | –
CC(=O)C1=C(O)CCC1=NCCc1ccccc1 | inconclusive: 11.2 µM [activator, single point] | –
Cc1ccc(Nc2nc(C)c(CCC(C)C)c(=O)[nH]2)cc1 | inconclusive: 5.01 µM [activator, single point] | –
O=C(N[C@@H](Cc1c[nH]c2ccccc12)C(=O)O)c1ccc(Cl)cc1 | inconclusive: 15.8 µM [activator, single point] | –
CC(CCc1ccc(O)cc1)NC1c2ccccc2-c2ccccc21 (stereo unspecified) | – | inactive: -29.3%
Oc1c(Br)cc(/C=N/n2c(-c3ccccc3)n[nH]c2=S)c(O)c1Br | – | inactive: -44.8%
CC1CCCC(NC(=O)Cn2c(Cl)nc3c2c(=O)n(C)c(=O)n3C)C1C (stereo unspecified) | inconclusive: 3.16 µM [activator, single point] | –
Cc1ccc(CN2C(=O)S/C(=C\c3ccccc3OCC(=O)O)C2=O)cc1 | inconclusive: 10 µM [activator, single point] | –
CCOC(=O)CSc1ccc(C(=O)Nc2ccc(Cl)cc2)cn1 | inconclusive: 5.01 µM [activator, single point] | –
COc1ccccc1NC(=O)/C(C#N)=C/c1ccncc1 | inconclusive: 3.16 µM [activator, single point] | –
COC(=O)C1C(C(=O)OC)C1(c1ccccc1)c1ccccc1 (stereo unspecified) | inconclusive: 11.2 µM [activator, partial curve, poor fit] | –
Cc1cccc(N=C2NC(=O)/C(=C/c3cccnc3)S2)c1C | inconclusive: 1.78 µM [activator, full curve, poor fit] | –

SMILES | Potency | activation
CCOC(=O)C1C(c2cccnc2)NC(=O)NC1(O)C(F)(F)F (stereo unspecified) | inconclusive: 11.2 µM [activator, single point] | –
COc1ccc(NC(=O)N2CCCc3ccccc32)cc1OC | inconclusive: 10 µM [activator, single point] | –
CC(=O)Cc1nsc(NC(=O)c2ccccc2Cl)n1 | inconclusive: 3.16 µM [activator, single point] | –
COc1cc(/C=N/NC(=O)CC23CC4CC(CC(C4)C2)C3)cc(Br)c1OCC(=O)N(C)C | – | inactive: 11.6%
Cc1cc(S(=O)(=O)NCC2CC2)c(Cl)cc1Cl | inconclusive: 28.2 µM [activator, partial curve, poor fit] | –
CN1CCN(c2nc(-c3ccccc3)ncc2S(=O)(=O)c2ccccc2)CC1 | inconclusive: 5.01 µM [activator, single point] | –
O=C(NCc1cccs1)c1cc(-c2ccccc2)on1 | inconclusive: 28.2 µM [activator, single point] | –
Cc1cc2c(OCC(O)CNCc3ccco3)cccc2[nH]1 (stereo unspecified) | inconclusive: 25.1 µM [activator, single point] | –
CCCCN(C(=O)c1ccc(N(C)S(=O)(=O)c2ccc(C)cc2)cc1)c1c(N)n(CC(C)C)c(=O)[nH]c1=O | inconclusive: 12.6 µM [activator, single point] | –
Cc1ccc(N(Cc2cc3cc(C)ccc3[nH]c2=O)S(=O)(=O)c2ccccc2)cc1 | – | inactive: 6.51%
O=C(OCc1ccc(C(=O)c2ccccc2)cc1)c1cccc(-c2nnc(-c3ccccc3)o2)c1 | – | inactive: 9.59%
COc1cccc(CN(C)C(=O)CCN=C2NS(=O)(=O)c3ccccc32)c1 | inconclusive: 20 µM [activator, single point] | –
C=CCOc1c(Cl)cc(/C=N/O)cc1OC | – | inconclusive: -21.7% [activator]
Cc1ccc(C(=O)COC(=O)c2cc(C)no2)c(C)c1 | – | inactive: -24.3%
Cc1cc(NC(=O)c2ccccc2)n(-c2nc3ccccc3[nH]2)n1 | – | inactive: 20.7%
O=c1c2c(nc(NCCO)n1CC1CCCCC1)-c1ccccc1CC21CCCC1 | – | inactive: 2%
COc1ccc(-c2ccc(-c3nnc(Cc4ccc(OC)c(OC)c4)o3)cc2)cc1 | – | inactive: -20.2%
CCN(CC)CCCNC(=O)c1cc(-c2ccccc2)c(N2CCCCC2)s1 | inconclusive: 5.01 µM [activator, single point] | –
COc1ccc(NC(=O)c2cccc(NS(=O)(=O)c3ccccc3)c2)cc1 | inconclusive: 1.78 µM [activator, partial curve, poor fit] | –
O=c1c2ccccc2c(C=NCCCN2CCOCC2)c(O)n1Cc1ccccc1 | – | inactive: 3.61%
Cc1ccc(C(=O)NC(=S)N2CCN(C(=O)OC(C)(C)C)CC2)cc1Br | inconclusive: 3.55 µM [activator, single point] | –
CCNC(=O)CN(Cc1ccccc1)S(=O)(=O)c1ccccc1 | inconclusive: 20 µM [activator, single point] | –
O=C(NCc1ccccc1)/C(=C\c1ccc(O)cc1)NC(=O)c1ccco1 | inconclusive: 0.891 µM [activator, full curve, poor fit] | –
